Where a SMILES comes first, the peptide text is derived from it.
Test system: baculovirus expressing luciferase under the control of the CMV promoter
Type: cell-based
Conditions: SI = CC50/IC50 in HEK293 cells
Procedure: A baculovirus expressing luciferase under the control of the CMV promoter has been described previously. HEK293 cells were seeded at a density of 2 × 10^4 cells/100 µL per well in 96-well plates (Sarstedt, Germany). On the next day, cells were treated with a 1:3 dilution series of peptides and, without further pre-incubation, subsequently infected with baculovirus–luc at a multiplicity of infection (MOI) of 5. Cells were lysed 24 h post-infection using 20 µL Cell Culture Lysis Reagent (Promega, Mannheim, Germany). From the lysates, 10 µL was transferred to white 96-well plates, and luciferase was recorded using a luciferase assay system and a GloMax®-Multi Detection System (Promega, Mannheim, Germany).

Row | SMILES | SI (selectivity index)
1 | CC(C)C[C@H](NC(=O)[C@H](CS)NC(=O)[C@H](CCC(N)=O)NC(=O)[C@@H]1CCCN1C(=O)[C@@H]1CCCN1C(=O)[C@H](CCCNC(=N)N)NC(=O)[C@H](CCCNC(=N)N)NC(=O)[C@H](CCCNC(=N)N)NC(=O)[C@H](CCC(N)=O)NC(=O)[C@H](CCCNC(=N)N)NC(=O)[C@H](CCCNC(=N)N)NC(=O)[C@H](CCCCN)NC(=O)[C@H](CCCCN)NC(=O)[C@H](CCCNC(=N)N)NC(=O)CN)C(=O)N[C@@H](C)C(=O)N[C@@H](Cc1ccccc1)C(=O)N[C@@H](Cc1ccc(O)cc1)C(=O)N[C@@H](C)C(=O)N[C@@H](CS)C(=O)N[C@@H](Cc1ccccc1)C(=O)N[C@@H](CS)C(=O)O [TAT-I24] (H-GRKKRRQRRRPPQCLAFYACFC-OH) | 2480
2 | CSCC[C@H](NC(=O)[C@H](Cc1ccccc1)NC(=O)[C@H](CCCNC(=N)N)NC(=O)[C@H](C)NC(=O)[C@H](Cc1ccc(O)cc1)NC(=O)[C@H](Cc1ccccc1)NC(=O)[C@H](C)NC(=O)[C@H](CC(C)C)NC(=O)[C@H](C)NC(=O)[C@H](CCC(N)=O)NC(=O)[C@@H]1CCCN1C(=O)[C@@H]1CCCN1C(=O)[C@H](CCCNC(=N)N)NC(=O)[C@H](CCCNC(=N)N)NC(=O)[C@H](CCCNC(=N)N)NC(=O)[C@H](CCC(N)=O)NC(=O)[C@H](CCCNC(=N)N)NC(=O)[C@H](CCCNC(=N)N)NC(=O)[C@H](CCCCN)NC(=O)[C@H](CCCCN)NC(=O)[C@H](CCCNC(=N)N)NC(=O)CN)C(=O)O [C14A, C20R, C22M] (H-GRKKRRQRRRPPQALAFYARFM-OH) | 109
